# In PubChem BioAssay AID2283127 (EPA ToxCast):
# Amino acid sequences for entries named in this document (tags omitted). A change or cut given only in a name is not applied to a line headed by its entry.
# UniProt Q9Y243: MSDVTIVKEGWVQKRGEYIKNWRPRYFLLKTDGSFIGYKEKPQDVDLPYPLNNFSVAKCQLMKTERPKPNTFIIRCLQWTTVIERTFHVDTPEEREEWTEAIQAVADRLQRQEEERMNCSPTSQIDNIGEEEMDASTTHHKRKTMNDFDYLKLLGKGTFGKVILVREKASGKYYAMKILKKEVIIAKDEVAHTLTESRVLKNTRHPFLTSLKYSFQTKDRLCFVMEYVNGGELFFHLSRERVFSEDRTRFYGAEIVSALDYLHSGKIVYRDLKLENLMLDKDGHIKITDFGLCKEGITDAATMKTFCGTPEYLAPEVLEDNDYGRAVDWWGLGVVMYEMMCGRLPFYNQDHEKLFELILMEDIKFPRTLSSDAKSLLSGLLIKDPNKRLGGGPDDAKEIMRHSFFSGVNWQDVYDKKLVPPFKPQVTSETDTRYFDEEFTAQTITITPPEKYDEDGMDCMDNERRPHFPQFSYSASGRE
# The list shows a part of the results, in another mix than the full data. Records with an inconclusive call do not appear. The source made the active and inactive calls. Rule for the calls: active = hit-call score of the fitted dose curve at least 0.9, where 1 is the maximum; inconclusive = response in the unintended direction; inactive = score below 0.9.
# Biological target: human AKT serine/threonine Kinase 3 (AKT3), AKT3 (gene 10000) (UniProt Q9Y243)
# Assay: NVS_ENZ_hAKT3: NovaScreen (NVS) Enzymatic Assay for human AKT serine/threonine Kinase 3 (AKT3)
# Procedure: NVS_ENZ_hAKT3 is a biochemical, single-readout assay that uses extracted gene-proteins in a cell-free assay. Measurements were taken 1 hour after chemical dosing in a 384-well plate.NVS_ENZ_hAKT3 is one of one assay component(s) measured or calculated from the NVS_ENZ_hAKT3 assay. It is designed to make measurements of enzyme activity, a form of enzyme reporter, as detected with fluorescence intensity signals by Fluorescence and electrophoretic mobility shift technology.Data from the assay component NVS_ENZ_hAKT3 was analyzed into 1 assay endpoint. This assay endpoint, NVS_ENZ_hAKT3, was analyzed in the positive analysis fitting direction relative to DMSO as the negative control and baseline of activity. Using a type of enzyme reporter, loss-of-signal activity can be used to understand changes in the enzymatic activity as they relate to the gene AKT3. Furthermore, this assay endpoint can be referred to as a primary readout, because this assay has produced multiple assay endpoints where this one serves a enzymatic activity function. To generalize the intended target to other relatable targets, this assay endpoint is annotated to the kinase intended target family, where the subfamily is serine/threonine kinase. […]
compound,measurement,value
S=C(S)NCCNC(=S)S.[Mn+2].[S-]C([S-])=NCCN=C([S-])[S-].[Zn+2],AC50,active: 13.6 µM
